No constants are given. Whether binding was seen depends on the method and setting. In cells and extracts the contact can be indirect. Some results given as binding are weak or reduced against the parent protein; the word gives no strength. Sequences can lack the tags named with a protein.
Biological target: T1, LIKE HETEROCHROMATIN PROTEIN 1 (LHP1) fused to NYFP (Arabidopsis thaliana) (UniProt Q946J8)
T1 sequence: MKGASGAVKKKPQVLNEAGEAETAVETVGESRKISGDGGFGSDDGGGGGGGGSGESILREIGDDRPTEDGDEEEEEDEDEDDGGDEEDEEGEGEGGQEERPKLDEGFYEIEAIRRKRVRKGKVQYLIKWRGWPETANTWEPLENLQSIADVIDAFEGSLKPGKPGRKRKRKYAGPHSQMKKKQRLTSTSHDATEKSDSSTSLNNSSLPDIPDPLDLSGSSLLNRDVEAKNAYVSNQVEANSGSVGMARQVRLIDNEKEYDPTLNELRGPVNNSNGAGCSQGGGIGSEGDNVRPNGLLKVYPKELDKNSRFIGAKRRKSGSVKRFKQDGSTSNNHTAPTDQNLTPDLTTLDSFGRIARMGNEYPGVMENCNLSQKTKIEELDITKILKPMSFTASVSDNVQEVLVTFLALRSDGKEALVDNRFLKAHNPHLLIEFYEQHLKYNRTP
Assay: split reporter

B1: VARIANT IN …ON 1 (VIM1) fused to CYFP (protein, UniProt Q8VYZ0 1-645)
chain: MARDIQLPCDGDGVCMRCKSNPPPEESLTCGTCVTPWHVSCLSSPPKTLASTLQWHCPDCSGEIDPLPVSGGATGFESAGSDLVAAIRAIEADESLSTEEKAKMRQRLLSGKGVEEDDEEEKRKKKGKGKNPNLDVLSALGDNLMCSFCMQLPERPVTKPCGHNACLKCFEKWMGQGKRTCGKCRSIIPEKMAKNPRINSSLVAAIRLAKVSKSAAATTSKVFHFISNQDRPDKAFTTERAKKTGKANAASGKIYVTIPPDHFGPIPAENDPVRNQGLLVGESWEDRLECRQWGAHFPHVAGIAGQSTYGAQSVALSGGYKDDEDHGEWFLYTGSGGRDLSGNKRTNKEQSFDQKFEKSNAALKLSCKLGYPVRVVRSHKEKRSAYAPEEGVRYDGVYRIEKCWRKVGVQGSFKVCRYLFVRCDNEPAPWTSDENGDRPRPIPNIPELNMATDLFERKETPSWDFDEGEGCWKWMKPPPASKKSVNVLAPEERKNLRKAIKAAHSNTMRARLLKEFKCQICQQVLTLPVTTPCAHNFCKACLEAKFAGKTLVRERSTGGRTLRSRKNVLNCPCCPTDISDFLQNPQVNREVAEVIEKLKTQEEDTAELEDEDEGECSGTTPEEDSEQPKKRIKLDTDATVSATIR
In the case of B1, the binding is reported as “binds”.

— doi:10.1101/2021.02.26.433017
